This passage reports binding results from article PMC6047807.

Chains of the proteins cited; added tags and fusions are not shown.
UniProt P06612: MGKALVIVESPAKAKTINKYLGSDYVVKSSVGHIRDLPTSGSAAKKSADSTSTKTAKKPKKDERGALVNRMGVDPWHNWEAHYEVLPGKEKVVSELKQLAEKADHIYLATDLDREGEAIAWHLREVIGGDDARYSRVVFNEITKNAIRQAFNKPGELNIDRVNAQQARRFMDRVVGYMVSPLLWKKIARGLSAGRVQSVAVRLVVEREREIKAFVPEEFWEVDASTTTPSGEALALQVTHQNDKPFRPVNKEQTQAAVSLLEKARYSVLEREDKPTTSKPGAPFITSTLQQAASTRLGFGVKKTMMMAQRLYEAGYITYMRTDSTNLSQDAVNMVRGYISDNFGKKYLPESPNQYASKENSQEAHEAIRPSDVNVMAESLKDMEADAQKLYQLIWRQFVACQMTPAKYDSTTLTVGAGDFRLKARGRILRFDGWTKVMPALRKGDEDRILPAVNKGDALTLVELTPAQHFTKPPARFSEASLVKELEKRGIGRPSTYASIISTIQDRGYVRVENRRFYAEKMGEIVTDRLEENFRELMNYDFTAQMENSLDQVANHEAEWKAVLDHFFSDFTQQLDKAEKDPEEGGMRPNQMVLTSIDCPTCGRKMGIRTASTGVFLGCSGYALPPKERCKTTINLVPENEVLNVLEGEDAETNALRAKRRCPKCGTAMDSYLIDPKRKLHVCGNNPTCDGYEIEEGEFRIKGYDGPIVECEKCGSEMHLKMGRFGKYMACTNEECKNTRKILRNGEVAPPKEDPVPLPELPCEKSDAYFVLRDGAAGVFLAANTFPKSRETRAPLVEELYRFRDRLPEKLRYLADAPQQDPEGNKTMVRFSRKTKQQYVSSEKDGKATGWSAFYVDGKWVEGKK

In the assay the target is Topoisomerase I (TopA) fused to T25 (E. coli) (UniProt P06612). Description: two-hybrid; bacterial two-hybrid (T18 and T25 fragments, cAMP-dependent lacZ reporter) in E. coli BTH101; colour of colonies and streaks on LB plates with X-gal, 30 °C, 30 hours.

These are yes or no findings as the source states them, for the method shown. Some entries that bind do so weakly or less than the wild type. Sequences can lack the tags named with a protein.

B1: RstA fused to T18 (protein, UniProt P52108 1-239)
chain: MNTIVFVEDDAEVGSLIAAYLAKHDMQVTVEPRGDQAEETILRENPDLVLLDIMLPGKDGMTICRDLRAKWSGPIVLLTSLDSDMNHILALEMGACDYILKTTPPAVLLARLRLHLRQNEQATLTKGLQETSLTPYKALHFGTLTIDPINRVVTLANTEISLSTADFELLWELATHAGQIMDRDALLKNLRGVSYDGLDRSVDVAISRLRKKLLDNAAEPYRIKTVRNKGYLFAPHAWE
With B1, the binding result is “binds weakly”.
